Results published in the supplement of paper PMC12067093, “Discovery and optimisation of a covalent ligand for TRIM25 and its application to targeted protein ubiquitination” (Chemical Science, 2025).
Some of the results follow.

The chains behind the UniProt entries cited, without tags or fusion partners. Where a name states a change or a piece, a line headed by the entry shows the natural chain unless it says otherwise.
UniProt O75608: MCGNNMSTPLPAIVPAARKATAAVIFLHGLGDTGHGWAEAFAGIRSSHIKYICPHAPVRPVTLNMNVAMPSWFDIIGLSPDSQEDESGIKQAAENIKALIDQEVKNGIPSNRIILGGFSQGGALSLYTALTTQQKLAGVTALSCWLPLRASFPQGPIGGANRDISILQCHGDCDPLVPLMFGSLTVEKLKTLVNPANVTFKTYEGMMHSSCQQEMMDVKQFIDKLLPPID
UniProt O95372: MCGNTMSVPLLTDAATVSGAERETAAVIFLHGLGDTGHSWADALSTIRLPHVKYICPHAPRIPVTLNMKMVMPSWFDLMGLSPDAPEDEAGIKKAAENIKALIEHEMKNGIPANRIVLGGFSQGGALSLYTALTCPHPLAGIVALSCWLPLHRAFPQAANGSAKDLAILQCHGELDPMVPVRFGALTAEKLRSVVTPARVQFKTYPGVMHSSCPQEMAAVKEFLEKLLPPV
UniProt P56192: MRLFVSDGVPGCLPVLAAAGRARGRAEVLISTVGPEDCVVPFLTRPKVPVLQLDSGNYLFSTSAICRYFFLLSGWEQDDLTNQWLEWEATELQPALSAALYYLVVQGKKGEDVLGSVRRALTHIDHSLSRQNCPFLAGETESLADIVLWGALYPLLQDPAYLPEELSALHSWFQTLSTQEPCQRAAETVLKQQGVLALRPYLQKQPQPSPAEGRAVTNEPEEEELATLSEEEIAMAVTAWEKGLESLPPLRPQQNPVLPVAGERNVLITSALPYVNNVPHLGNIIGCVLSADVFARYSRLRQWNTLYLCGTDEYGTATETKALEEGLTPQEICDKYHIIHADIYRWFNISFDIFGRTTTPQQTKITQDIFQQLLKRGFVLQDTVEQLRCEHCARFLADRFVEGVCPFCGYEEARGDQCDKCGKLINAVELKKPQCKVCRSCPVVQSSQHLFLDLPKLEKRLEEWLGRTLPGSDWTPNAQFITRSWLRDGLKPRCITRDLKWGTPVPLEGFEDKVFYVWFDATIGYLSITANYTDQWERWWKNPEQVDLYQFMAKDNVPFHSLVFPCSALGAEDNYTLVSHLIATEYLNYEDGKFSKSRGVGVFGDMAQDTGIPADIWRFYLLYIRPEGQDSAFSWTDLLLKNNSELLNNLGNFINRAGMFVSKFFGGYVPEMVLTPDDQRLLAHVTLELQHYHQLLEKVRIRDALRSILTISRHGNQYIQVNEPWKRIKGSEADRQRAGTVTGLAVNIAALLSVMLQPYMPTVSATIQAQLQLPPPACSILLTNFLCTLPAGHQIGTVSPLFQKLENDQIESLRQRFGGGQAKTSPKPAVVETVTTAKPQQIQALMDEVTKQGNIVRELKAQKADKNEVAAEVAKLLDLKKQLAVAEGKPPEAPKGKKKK
UniProt O60449: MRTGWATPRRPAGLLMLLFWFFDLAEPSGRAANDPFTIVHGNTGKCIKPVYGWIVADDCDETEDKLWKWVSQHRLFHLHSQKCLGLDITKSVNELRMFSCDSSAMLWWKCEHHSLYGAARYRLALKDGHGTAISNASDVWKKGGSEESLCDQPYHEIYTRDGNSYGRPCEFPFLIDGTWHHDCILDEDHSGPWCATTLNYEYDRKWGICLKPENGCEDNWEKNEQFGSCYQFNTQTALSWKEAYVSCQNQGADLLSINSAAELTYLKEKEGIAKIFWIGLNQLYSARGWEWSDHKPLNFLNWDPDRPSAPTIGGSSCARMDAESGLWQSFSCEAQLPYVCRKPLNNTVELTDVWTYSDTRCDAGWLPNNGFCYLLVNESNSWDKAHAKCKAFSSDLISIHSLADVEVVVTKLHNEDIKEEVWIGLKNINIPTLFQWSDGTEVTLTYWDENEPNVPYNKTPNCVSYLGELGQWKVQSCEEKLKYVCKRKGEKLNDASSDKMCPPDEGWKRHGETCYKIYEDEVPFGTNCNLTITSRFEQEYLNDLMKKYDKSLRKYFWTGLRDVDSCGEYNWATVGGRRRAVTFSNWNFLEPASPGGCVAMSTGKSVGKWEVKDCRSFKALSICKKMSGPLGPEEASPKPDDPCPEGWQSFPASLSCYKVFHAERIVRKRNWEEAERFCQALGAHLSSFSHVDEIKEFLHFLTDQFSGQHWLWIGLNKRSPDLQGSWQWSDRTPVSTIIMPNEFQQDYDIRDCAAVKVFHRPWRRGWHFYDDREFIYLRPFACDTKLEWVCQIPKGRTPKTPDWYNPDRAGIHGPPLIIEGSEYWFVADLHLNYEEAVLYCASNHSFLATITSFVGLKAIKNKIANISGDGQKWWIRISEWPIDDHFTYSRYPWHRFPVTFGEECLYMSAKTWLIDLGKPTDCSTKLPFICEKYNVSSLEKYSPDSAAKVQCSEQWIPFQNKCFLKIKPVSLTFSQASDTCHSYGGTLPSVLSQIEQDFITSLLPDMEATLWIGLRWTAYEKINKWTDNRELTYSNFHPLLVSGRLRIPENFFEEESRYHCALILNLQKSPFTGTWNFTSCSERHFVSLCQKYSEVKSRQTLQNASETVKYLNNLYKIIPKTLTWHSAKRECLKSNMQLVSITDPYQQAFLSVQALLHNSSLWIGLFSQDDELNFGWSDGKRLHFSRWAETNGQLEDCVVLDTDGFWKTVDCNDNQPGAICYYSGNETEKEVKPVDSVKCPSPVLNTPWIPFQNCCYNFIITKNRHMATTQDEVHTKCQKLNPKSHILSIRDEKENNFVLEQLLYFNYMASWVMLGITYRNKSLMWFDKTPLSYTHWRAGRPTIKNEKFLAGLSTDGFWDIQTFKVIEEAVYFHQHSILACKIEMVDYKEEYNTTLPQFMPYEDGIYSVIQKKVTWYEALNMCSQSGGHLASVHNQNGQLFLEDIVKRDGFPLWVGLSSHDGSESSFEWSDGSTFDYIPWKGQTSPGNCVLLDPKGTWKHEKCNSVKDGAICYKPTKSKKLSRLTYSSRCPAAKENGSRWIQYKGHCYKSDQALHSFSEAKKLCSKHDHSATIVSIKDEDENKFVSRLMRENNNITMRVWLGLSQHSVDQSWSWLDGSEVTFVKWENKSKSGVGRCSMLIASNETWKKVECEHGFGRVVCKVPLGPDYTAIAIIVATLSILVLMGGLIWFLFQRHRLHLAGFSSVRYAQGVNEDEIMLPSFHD
UniProt P55145: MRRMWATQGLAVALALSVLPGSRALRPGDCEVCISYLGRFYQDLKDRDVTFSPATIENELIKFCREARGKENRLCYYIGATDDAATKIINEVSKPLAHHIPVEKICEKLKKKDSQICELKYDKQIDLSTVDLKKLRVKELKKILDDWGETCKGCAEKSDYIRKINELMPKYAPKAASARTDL
UniProt O95232: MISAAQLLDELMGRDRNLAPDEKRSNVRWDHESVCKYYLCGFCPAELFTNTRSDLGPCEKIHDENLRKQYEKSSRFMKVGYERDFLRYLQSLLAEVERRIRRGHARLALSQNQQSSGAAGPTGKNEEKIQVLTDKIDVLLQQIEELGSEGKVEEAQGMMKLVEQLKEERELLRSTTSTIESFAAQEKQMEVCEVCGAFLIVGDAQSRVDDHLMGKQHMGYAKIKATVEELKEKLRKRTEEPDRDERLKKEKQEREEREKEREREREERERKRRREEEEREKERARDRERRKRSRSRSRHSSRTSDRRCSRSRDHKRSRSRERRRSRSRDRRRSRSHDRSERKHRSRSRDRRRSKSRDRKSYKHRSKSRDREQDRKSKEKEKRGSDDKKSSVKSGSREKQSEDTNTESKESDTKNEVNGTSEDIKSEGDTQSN
UniProt O94822: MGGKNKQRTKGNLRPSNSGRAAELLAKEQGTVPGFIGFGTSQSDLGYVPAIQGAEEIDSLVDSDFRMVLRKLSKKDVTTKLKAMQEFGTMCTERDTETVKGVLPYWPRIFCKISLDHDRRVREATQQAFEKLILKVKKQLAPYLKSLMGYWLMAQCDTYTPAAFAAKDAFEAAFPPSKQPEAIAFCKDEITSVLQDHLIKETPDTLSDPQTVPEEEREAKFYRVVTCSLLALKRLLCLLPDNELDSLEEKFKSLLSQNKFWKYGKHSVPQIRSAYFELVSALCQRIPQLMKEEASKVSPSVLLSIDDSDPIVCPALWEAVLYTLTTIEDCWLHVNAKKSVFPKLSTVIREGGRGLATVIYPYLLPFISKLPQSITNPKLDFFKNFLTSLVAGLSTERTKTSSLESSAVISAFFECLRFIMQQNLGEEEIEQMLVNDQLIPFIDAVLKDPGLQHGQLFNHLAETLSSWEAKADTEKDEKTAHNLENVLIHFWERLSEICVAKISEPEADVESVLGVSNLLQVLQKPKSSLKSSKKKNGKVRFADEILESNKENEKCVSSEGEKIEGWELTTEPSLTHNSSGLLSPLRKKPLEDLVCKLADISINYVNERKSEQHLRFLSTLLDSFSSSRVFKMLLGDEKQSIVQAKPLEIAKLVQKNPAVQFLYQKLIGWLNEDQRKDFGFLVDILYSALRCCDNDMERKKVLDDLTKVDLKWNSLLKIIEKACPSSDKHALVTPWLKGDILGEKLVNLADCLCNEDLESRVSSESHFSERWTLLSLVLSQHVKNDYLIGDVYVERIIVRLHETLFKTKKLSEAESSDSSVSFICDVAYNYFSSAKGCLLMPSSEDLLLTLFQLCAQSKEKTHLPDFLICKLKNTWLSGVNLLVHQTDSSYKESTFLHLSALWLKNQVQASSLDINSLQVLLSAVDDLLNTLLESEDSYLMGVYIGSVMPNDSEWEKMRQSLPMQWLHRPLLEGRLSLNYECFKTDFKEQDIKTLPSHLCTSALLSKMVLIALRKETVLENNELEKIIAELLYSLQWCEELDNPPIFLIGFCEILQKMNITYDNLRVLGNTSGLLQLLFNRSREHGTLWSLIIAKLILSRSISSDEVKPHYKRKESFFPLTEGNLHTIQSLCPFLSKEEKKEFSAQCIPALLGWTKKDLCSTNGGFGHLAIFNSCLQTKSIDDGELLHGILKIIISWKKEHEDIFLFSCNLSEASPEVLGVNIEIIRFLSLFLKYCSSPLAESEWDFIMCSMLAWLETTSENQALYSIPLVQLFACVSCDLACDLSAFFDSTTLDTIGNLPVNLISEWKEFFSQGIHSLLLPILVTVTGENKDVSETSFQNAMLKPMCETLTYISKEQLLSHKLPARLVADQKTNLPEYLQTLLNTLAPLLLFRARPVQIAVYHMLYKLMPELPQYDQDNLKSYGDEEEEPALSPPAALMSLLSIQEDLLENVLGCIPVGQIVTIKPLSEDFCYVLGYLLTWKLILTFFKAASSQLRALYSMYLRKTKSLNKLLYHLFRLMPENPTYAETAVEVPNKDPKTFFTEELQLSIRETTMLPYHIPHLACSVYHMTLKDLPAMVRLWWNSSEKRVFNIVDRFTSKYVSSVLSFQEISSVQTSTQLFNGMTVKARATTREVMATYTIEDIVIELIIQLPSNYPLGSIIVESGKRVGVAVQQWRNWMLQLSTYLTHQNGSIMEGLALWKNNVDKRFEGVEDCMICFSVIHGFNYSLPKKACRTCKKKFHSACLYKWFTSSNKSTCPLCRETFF
UniProt Q9NZL9, whole entry, looked up: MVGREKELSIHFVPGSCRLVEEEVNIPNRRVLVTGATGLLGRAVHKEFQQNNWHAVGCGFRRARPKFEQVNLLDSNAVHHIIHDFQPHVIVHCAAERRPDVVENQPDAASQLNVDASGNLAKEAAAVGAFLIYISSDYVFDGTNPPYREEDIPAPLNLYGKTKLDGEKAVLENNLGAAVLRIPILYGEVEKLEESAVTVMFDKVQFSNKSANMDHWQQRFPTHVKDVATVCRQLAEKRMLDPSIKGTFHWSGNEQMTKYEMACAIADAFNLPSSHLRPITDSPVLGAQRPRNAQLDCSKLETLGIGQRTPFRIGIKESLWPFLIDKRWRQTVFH
UniProt Q7L5Y9: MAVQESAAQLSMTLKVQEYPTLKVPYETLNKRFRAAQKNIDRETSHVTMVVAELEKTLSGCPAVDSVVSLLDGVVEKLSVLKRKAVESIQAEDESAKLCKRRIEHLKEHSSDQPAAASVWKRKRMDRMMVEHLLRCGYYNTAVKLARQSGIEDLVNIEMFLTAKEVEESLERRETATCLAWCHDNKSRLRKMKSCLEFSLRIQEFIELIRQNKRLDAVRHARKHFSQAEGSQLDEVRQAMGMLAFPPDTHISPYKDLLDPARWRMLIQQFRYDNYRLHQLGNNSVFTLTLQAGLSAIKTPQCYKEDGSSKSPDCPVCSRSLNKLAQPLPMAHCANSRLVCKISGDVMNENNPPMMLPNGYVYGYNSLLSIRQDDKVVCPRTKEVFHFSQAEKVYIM

Compound: CC1Cc2ccccc2N1C(=O)C1CCCN(C1)C(=O)CCl (mixture of isomers) [TRIM25 ligand 11 (diastereomer mixture)]
Assay: probe-labelled cysteine peptide fold change vs DMSO (competition) (log2 fold change); higher = less target engagement (more negative = stronger competition)
Settings: THP-1, incubation time: 4 h
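Further: competitive chemoproteomic profiling in live THP-1 cells with an iodoacetamide desthiobiotin (IA-DTB) probe, comparing probe-labelled peptide intensities in compound-treated cells against DMSO-treated controls.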

Target | probe-labelled cysteine peptide fold change (10 µM) | probe-labelled cysteine peptide fold change (50 µM)
MAP1S_Q66K74_841_HDPLPDPLKVPPPLPDPSSICMVDPEMLPPK (UniProt Q66K74) | -0.202 | –
LYPLA1_O75608_169_DISILQCHGDCDPLVPLMFGSLTVEK (UniProt O75608) | -0.0615 | -0.324
MAP10_Q9P2G4_605_TVDCSK (UniProt Q9P2G4) | -0.174 | -0.0642
MAP2K6_P52564_216_TIDAGCK (UniProt P52564) | 0.111 | 0.111
MAP4K4_O95819_496_HLEVLQQQLLQEQAMLLECR (UniProt O95819) | -0.0501 | -0.213
LYPLA2_O95372_171_DLAILQCHGELDPMVPVR (UniProt O95372) | -0.136 | -0.229
MAP3K3_Q99759_430_IVQYYGCLR (UniProt Q99759) | 0.011 | 0.0294
MAVS_Q7Z434_133_TSDRPPDPLEPPSLPAERPGPPTPAAAHSIPYNSCR (UniProt Q7Z434) | 0.0353 | -0.142
MARS_P56192_38_AEVLISTVGPEDCVVPFLTRPK (UniProt P56192) | -0.0893 | -0.138
MACF1_Q9UPN3_919_VISPTGNEAMVPSVCFLIPPPNK (UniProt Q9UPN3) | 0.0152 | 0.0706
LY75_O60449_150_KGGSEESLCDQPYHEIYTR (UniProt O60449) | 0.0216 | -0.013
LYPLA1_O75608_144_LAGVTALSCWLPLR (UniProt O75608) | -0.0238 | 0.129
MAP4K1_Q92918_494_LFNGCPLR (UniProt Q92918) | 0.0601 | 0.111
MANF_P55145_151_ILDDWGETCK (UniProt P55145) | -0.0447 | 0.021
MBD1_Q9UIS9_525_ADTQDEWTPGTAVLTSPVLVPGCPSK (UniProt Q9UIS9) | -0.0898 | -0.159
LYST_Q99698_20_LCNAVVQR (UniProt Q99698) | -0.0369 | 0.0718
LUC7L3_O95232_40+43_YYLCGFCPAELFTNTR (UniProt O95232) | 0.142 | -0.332
LYPLA2_O95372_213_TYPGVMHSSCPQEMAAVK (UniProt O95372) | 0.0451 | –
LYPLA2_O95372_56_YICPHAPR (UniProt O95372) | 0.0524 | -0.0211
MASTL_Q96GX5_614_ESSFEESNIEDPLIVTPDCQEK (UniProt Q96GX5) | 0.11 | -0.199
MAP3K4_Q9Y6R4_1581_DFLSHCLESDPK (UniProt Q9Y6R4) | -0.00106 | -0.00344
LY75_O60449_566_DVDSCGEYNWATVGGR (UniProt O60449) | -0.0643 | 0.143

Target | probe-labelled cysteine peptide fold change (10 µM) | probe-labelled cysteine peptide fold change (50 µM)
MACF1_Q9UPN3_2629_KEGLLTNEAVLSPGMMHGIVDPENCR (UniProt Q9UPN3) | -0.0238 | 0.0638
MACF1_Q9UPN3_3173_HQISSSNECK (UniProt Q9UPN3) | -0.0534 | -0.119
MACF1_Q9UPN3_877_AVCDYR (UniProt Q9UPN3) | 0.138 | 0.0558
MAN2C1_Q9NTJ4_29_FVSPLYFTDCNLR (UniProt Q9NTJ4) | 0.111 | –
MAN1A1_P33908_579_WAWEAVEALENHCR (UniProt P33908) | -0.0183 | -0.00169
LYZ_P61626_83_YWCNDGK (UniProt P61626) | -0.0213 | -0.0161
MAP7D1_Q3KQU3_251_CSVSAVNLPK (UniProt Q3KQU3) | -0.00301 | -0.0811
MACF1_Q9UPN3_1806_HNLIDQDMACAILIR (UniProt Q9UPN3) | -0.0339 | 0.163
MAP2K4_P45985_246_LCDFGISGQLVDSIAK (UniProt P45985) | -0.087 | 0.0237
MAPK8_P45983_163_SDCTLK (UniProt P45983) | -0.054 | 0.102
MATR3_P43243_293+296_GYPHLCSICDLPVHSNK (UniProt P43243) | -0.198 | -0.0671
LUC7L3_O95232_58_SDLGPCEK (UniProt O95232) | -0.0397 | -0.155
LTA4H_P09960_141_EHPYLFSQCQAIHCR (UniProt P09960) | 0.0431 | 0.228
MARS2_Q96GW9_336+344_ICVHSHWTVCGQK (UniProt Q96GW9) | 0.15 | 0.0821
MBNL1_Q9NR56_27_GTCSRPDTECK (UniProt Q9NR56) | -0.108 | -0.0586
MAP4K2_Q12851_302_ASDPHLGTPSPEDCELETYDMFPDTIHSR (UniProt Q12851) | -0.0289 | -0.161
LTN1_O94822_1745_KFHSACLYK (UniProt O94822) | -0.113 | 0.0258
MAPK9_P45984_177_TACTNFMMTPYVVTR (UniProt P45984) | -0.23 | -0.48
MAP4K3_Q8IVH8_509_DGSLCQQQNEHR (UniProt Q8IVH8) | 0.0483 | -0.0549
MAT2B_Q9NZL9_231_DVATVCR (UniProt Q9NZL9) | -0.163 | -0.00304
MANBA_O00462_176_GECHVNFVR (UniProt O00462) | 0.0138 | -0.0444
MAP1S_Q66K74_975_ALCYVISGQDQR (UniProt Q66K74) | -0.0635 | 0.0166

Target | probe-labelled cysteine peptide fold change (10 µM) | probe-labelled cysteine peptide fold change (50 µM)
MAPK3_P27361_144_SQQLSNDHICYFLYQILR (UniProt P27361) | -0.16 | 0.327
MACF1_Q9UPN3_6075_ILGADLIFACGETEKPEVR (UniProt Q9UPN3) | 0.101 | 0.259
MAIP1_Q8WWC4_162_LLSQCK (UniProt Q8WWC4) | 0.0902 | 0.0774
LTN1_O94822_723_ACPSSDK (UniProt O94822) | 0.0252 | 0.0493
MARS_P56192_309_QWNTLYLCGTDEYGTATETK (UniProt P56192) | 0.206 | 0.143
MAP3K2_Q9Y2U5_405_EVNALECEIQLLK (UniProt Q9Y2U5) | -0.0048 | -0.121
MAPK8_P45983_41_YQNLKPIGSGAQGIVCAAYDAILER (UniProt P45983) | -5.59e-05 | -0.0715
MATR3_P43243_552_EDAMAMVDHCLKK (UniProt P43243) | -0.14 | -0.0163
LYST_Q99698_3586_CGVITAYTNR (UniProt Q99698) | 0.109 | -0.028
MACF1_Q9UPN3_892_NDECVLEDNSQR (UniProt Q9UPN3) | 0.106 | -0.11
MARS_P56192_333_ALEEGLTPQEICDK (UniProt P56192) | 0.088 | 0.151
LYAR_Q9NX58_51_CISEDQK (UniProt Q9NX58) | -0.0926 | -0.182
MARCH3_Q86UD3_89_ICHEGSSQEDLLSPCECTGTLGTIHR (UniProt Q86UD3) | 0.253 | 0.0333
LUC7L_Q9NQ29_97_ERDLFFELDAMDHLESFIAECDRR (UniProt Q9NQ29) | -0.0216 | 0.000413
MACF1_Q9UPN3_4752_EAQTLCDELSVLIGEQYLK (UniProt Q9UPN3) | -0.221 | 0.211
MAEA_Q7L5Y9_195_SCLEFSLR (UniProt Q7L5Y9) | -0.00611 | -0.0173
MACF1_Q9UPN3_5309_DCDVQGLEHDMEEINAR (UniProt Q9UPN3) | 0.136 | -0.0387
MAEA_Q7L5Y9_61_TLSGCPAVDSVVSLLDGVVEK (UniProt Q7L5Y9) | -0.278 | -0.111
MAP1S_Q66K74_738+743_SASPHDVDLCLVSPCEFEHR (UniProt Q66K74) | 0.0822 | -0.265
LY75_O60449_477_VQSCEEK (UniProt O60449) | 0.0985 | 0.21
MBD4_O95243_268_ESVCNK (UniProt O95243) | -0.131 | -0.259
MAP3K1_Q13233_667_AMLVYTPCHSLAER (UniProt Q13233) | 0.29 | 0.387

Target | probe-labelled cysteine peptide fold change (10 µM) | probe-labelled cysteine peptide fold change (50 µM)
MAP1S_Q66K74_440_VLFPGCTPPACLLDGLVR (UniProt Q66K74) | 0.0367 | -0.0418
MAU2_Q9Y6X3_145_AIQISQQTPYWHCR (UniProt Q9Y6X3) | -0.167 | 0.0177
MAP4_P27816_67_KKPCSETSQIEDTPSSKPTLLANGGHGVEGSDTTGSPTEFLEEK (UniProt P27816) | -0.246 | -0.241
MAP3K5_Q99683_391_ALDIMIPMVQSEGQVASDMYCLVGR (UniProt Q99683) | 0.187 | -0.232
MAF1_Q9H063_34_IESYSCK (UniProt Q9H063) | 0.0118 | 0.136
MAP1S_Q66K74_342_LISPNLGVVFFNACEAASR (UniProt Q66K74) | -0.0757 | -0.0686
LZTR1_Q8N653_667_AYLEGAGAEFCDITLLLDGHPRPAHK (UniProt Q8N653) | -0.0537 | 0.0338
MARCH5_Q9NX47_46_WVHQACLQR (UniProt Q9NX47) | -0.0321 | -0.0834
MAN2A1_Q16706_840_IYSEVTCFFDHVTHR (UniProt Q16706) | 0.132 | 0.17
LYAR_Q9NX58_6+9_VFFTCNACGESVKK (UniProt Q9NX58) | -0.135 | -0.2
MAN2B1_O00754_472_QLAAGWGPCEVLLSNALAR (UniProt O00754) | 0.211 | 0.396
MARS_P56192_12_LFVSDGVPGCLPVLAAAGR (UniProt P56192) | 0.00736 | -0.00116
MBD1_Q9UIS9_350_RMDCGR (UniProt Q9UIS9) | 0.0388 | 0.0219
MALT1_Q9UDY8_667_HCLYTR (UniProt Q9UDY8) | 0.019 | -0.0638
MACF1_Q9UPN3_443_IQNGALNCEEK (UniProt Q9UPN3) | 0.147 | 0.132
MAP2K7_O14733_280_SAGCAAYMAPER (UniProt O14733) | -0.179 | -0.201
MAT2B_Q9NZL9_17_ELSIHFVPGSCR (UniProt Q9NZL9) | -0.0429 | -0.0991
MARS_P56192_309_LRQWNTLYLCGTDEYGTATETK (UniProt P56192) | -0.163 | -0.0566
MBLAC2_Q68D91_212_ISDYVGTCER (UniProt Q68D91) | -0.0849 | 0.0369
